PubChem BioAssay AID1259308, NCATS, 2017

Aim: 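Candidate targets for better recombinant protein yield in mammalian cells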 (primary screen)
Cell system: human HEK293 embryonic kidney cells stably expressing firefly luciferase (HEK-CMV-Luc2-Hygro)
Knock-down reagent: single siRNA against human genes, 0.8 pmol siRNA per well
Duration: 72 h
Detection: 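Reporter luminescence and viable-cell signal on separate replicate plates, given as percent of non-targeting control and median/MAD z-scores, plus per-cell luciferase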
Reading the numbers: total luciferase, z-score and total luciferase, % of control: higher = more reporter protein produced; luciferase per cell, z-score: higher = more reporter output per viable cell
Rule for the call: 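Active when the median/MAD z-score for overall luciferase is greater than 3; a gene was taken forward for validation with new siRNAs if at least two of its three siRNAs passed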
Calls: active = raised luciferase; inactive = no rise
The deposit covers about 59,000 reagents; shown is an unselected part. In the full data, about 1,510 (2.6%) are marked active. 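Calls use total luciferase alone and ignore viability, so some active siRNAs may act by altering cell number.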 Unmarked entries are inactive. The numbers tell different reagents against one gene apart. Not all columns of the deposit are shown.

Target gene	reagent	total luciferase, z-score	total luciferase, % of control	luciferase per cell, z-score
PALM3 (paralemmin 3)	1	-1.98	42.5	0.356
PALM3 (paralemmin 3)	2	0.558	93	1.14
PALM3 (paralemmin 3)	3	-0.466	72.6	0.452
ADGRF4 (adhesion G protein-coupled receptor F4)	1	0.114	84.2	0.319
ADGRF4 (adhesion G protein-coupled receptor F4)	2	-0.334	75.2	-0.595
ADGRF4 (adhesion G protein-coupled receptor F4)	3	0.0456	82.8	-0.44
CIB4 (calcium and integrin binding family member 4)	1	-2.58	30.5	-2.77
CIB4 (calcium and integrin binding family member 4)	2	0.87	99.2	0.974
CIB4 (calcium and integrin binding family member 4)	3	-0.926	63.5	-0.0556
KCTD21 (potassium channel tetramerization domain containing 21)	1	-0.556	70.8	-0.781
KCTD21 (potassium channel tetramerization domain containing 21)	2	0.754	96.9	1.23
KCTD21 (potassium channel tetramerization domain containing 21)	3	0.644	94.7	1.24
PTRHD1 (peptidyl-tRNA hydrolase domain containing 1)	1	-0.295	76	-0.14
PTRHD1 (peptidyl-tRNA hydrolase domain containing 1)	2	-0.824	65.5	-0.622
PTRHD1 (peptidyl-tRNA hydrolase domain containing 1)	3	-0.564	70.7	-0.395
JAZF1 (JAZF zinc finger 1)	1	-0.353	74.9	-0.307
JAZF1 (JAZF zinc finger 1)	2	0.991	102	0.269
JAZF1 (JAZF zinc finger 1)	3	-1.11	59.8	-1.27
POLA1 (DNA polymerase alpha 1, catalytic subunit)	1	0.158	85	0.743
POLA1 (DNA polymerase alpha 1, catalytic subunit)	2	-0.0275	81.3	-0.207
POLA1 (DNA polymerase alpha 1, catalytic subunit)	3	-0.531	71.3	-0.506
CLRN1 (clarin 1)	1	-0.572	70.5	-0.747
CLRN1 (clarin 1)	2	0.718	96.2	0.739
CLRN1 (clarin 1)	3	1.5	112	0.815
SEPHS1 (selenophosphate synthetase 1)	1	-0.506	71.8	-0.795
SEPHS1 (selenophosphate synthetase 1)	2	-0.842	65.1	-0.991
SEPHS1 (selenophosphate synthetase 1)	3	-0.9	64	-0.922
TCFL5 (transcription factor like 5)	1	-0.277	76.4	-0.533
TCFL5 (transcription factor like 5)	2	1.21	106	2.97
TCFL5 (transcription factor like 5)	3	-1.38	54.5	-1.57
ID2 (inhibitor of DNA binding 2)	1	0.0517	82.9	1.54
ID2 (inhibitor of DNA binding 2)	2	-0.893	64.1	-0.147
ID2 (inhibitor of DNA binding 2)	3	2.79	137	2.66
ZBED5-AS1 (ZBED5 antisense RNA 1)	1	0.717	96.2	0.886
ZBED5-AS1 (ZBED5 antisense RNA 1)	2	0.0272	82.4	-0.31
ZBED5-AS1 (ZBED5 antisense RNA 1)	3	0.175	85.4	-0.62
LINC00900 (long independently transcribed non-coding RNA 900)	1	0.638	94.6	2.13
LINC00900 (long independently transcribed non-coding RNA 900)	2	1.57	113	2.04
LINC00900 (long independently transcribed non-coding RNA 900)	3	-0.287	76.2	-0.218

Quoted from the listing (3 entries):
Target gene	reagent	total luciferase, z-score	total luciferase, % of control	luciferase per cell, z-score
CIB4 (calcium and integrin binding family member 4)	1	-2.58	30.5	-2.77
CIB4 (calcium and integrin binding family member 4)	2	0.87	99.2	0.974
CIB4 (calcium and integrin binding family member 4)	3	-0.926	63.5	-0.0556
